Values from PubChem BioAssay AID743454 (Peter MacCallum Cancer Centre, 2014).
Test: 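Search for knock-downs that restore vorinostat killing in resistant colon cancer cells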 (primary screen). Cells: human HCT116-VR colon cancer cells, selected for vorinostat resistance. Reagent: siRNA pool against human genes, 40 nM siRNA pool. Time to read-out: vorinostat for 24 h, read-out about 72 h after transfection. Treatment: vorinostat at 2.5 µM final. Measurement: 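Cell viability by CellTiter-Fluor and caspase 3/7 activity by luminescence, each scaled to mock wells per plate, duplicates averaged, then robust z-scored over all plates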. Scale: viability robust z-score: higher = more viable cells than screen typical; caspase robust z-score: higher = more caspase 3/7 activity than screen typical. Call rule: 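Hits are knock-downs in viability class RV1/RV2 or caspase class CA1/CA2, excluding ones that killed cells in the no-drug cell-count arm; hits then retested with single siRNAs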.
Here is an unselected part of about 18,000 deposited reagents. 450 of them (2.5%) count as active. 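Single biological run; no consistent viability z cut-off exists, so the class columns, not z-scores, define the calls.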

gene	viability hit class	caspase hit class	viability robust z-score	caspase robust z-score	Outcome
UBXN2B (GeneID 137886)	no change	no change	0.86	0.44	inactive
RAB9B (GeneID 51209)	no change	no change	-0.7	0.57	inactive
CLEC12A (GeneID 160364)	no change	no change	0.03	-1.3	inactive
AMPD2 (GeneID 271)	no change	no change	1.38	-0.34	inactive
NMU (GeneID 10874)	no change	no change	-0.73	-1.28	inactive
RAB7B (GeneID 338382)	no change	no change	-1.08	0.89	inactive
ADGRF4 (GeneID 221393)	no change	no change	-0.28	-1.29	inactive
ZIK1 (GeneID 284307)	no change	no change	1.7	0.5	inactive
KLHL31 (GeneID 401265)	no change	no change	0.94	-0.53	inactive
SELENOW (GeneID 6415)	no change	no change	-0.51	0.05	inactive
EFTUD2 (GeneID 9343)	no change	no change	-3.27	-0.52	inactive
SVEP1 (GeneID 79987)	no change	no change	-1.1	-0.05	inactive
ZNF132 (GeneID 7691)	no change	no change	0.42	3.35	inactive
NAPG (GeneID 8774)	no change	no change	-0.47	0.82	inactive
TRIM51G (GeneID 120824)	no change	CA1 (caspase activation)	0.7	-0.3	active
GPR62 (GeneID 118442)	no change	no change	-0.05	-0.56	inactive
NPRL3 (GeneID 8131)	no change	no change	0.77	-0.03	inactive
TRIML2 (GeneID 205860)	no change	no change	-1.46	1.25	inactive
LGALS3BP (GeneID 3959)	no change	no change	0.89	1.48	inactive
UBXN2A (GeneID 165324)	no change	no change	0.58	-0.54	inactive
ARGFX (GeneID 503582)	no change	no change	0.34	0.54	inactive
URGCP (GeneID 55665)	no change	no change	-0.37	-0.59	inactive
ASTN2 (GeneID 23245)	no change	no change	-1.28	-0.98	inactive
ADGRG6 (GeneID 57211)	no change	no change	1.27	-0.31	inactive
RIPK4 (GeneID 54101)	no change	no change	0.06	-0.37	inactive
TTC21A (GeneID 199223)	no change	no change	1.22	1.62	inactive
MCHR2 (GeneID 84539)	no change	no change	-0.9	0.5	inactive
SATB2 (GeneID 23314)	no change	no change	-0.4	0.57	inactive
PTPN13 (GeneID 5783)	no change	no change	-0.36	-0.76	inactive
CTXN3 (GeneID 613212)	no change	no change	1.79	0.18	inactive
KLK5 (GeneID 25818)	no change	no change	-0.9	0.03	inactive
RNASE8 (GeneID 122665)	no change	no change	0.86	-0.96	inactive
ZNF77 (GeneID 58492)	no change	no change	0.92	-0.71	inactive
ZNF214 (GeneID 7761)	no change	no change	1.52	-0.82	inactive
OR4A15 (GeneID 81328)	no change	no change	0.32	-0.83	inactive
ASCL3 (GeneID 56676)	no change	no change	0.02	-0.23	inactive
SOWAHC (GeneID 65124)	no change	no change	-1.05	3.46	inactive
STK11IP (GeneID 114790)	no change	no change	-1.28	-0.58	inactive
PRM2 (GeneID 5620)	no change	no change	-0.06	4.1	inactive

No new results follow: 4 of the entries above.
gene	viability hit class	caspase hit class	viability robust z-score	caspase robust z-score	Outcome
NAPG (GeneID 8774)	no change	no change	-0.47	0.82	inactive
TRIM51G (GeneID 120824)	no change	CA1 (caspase activation)	0.7	-0.3	active
GPR62 (GeneID 118442)	no change	no change	-0.05	-0.56	inactive
NPRL3 (GeneID 8131)	no change	no change	0.77	-0.03	inactive
